IC50 data for 1 molecule are collected here from paper PMC11609979 (Chemical Science, 2024).

For this test, the system named is A549 cells. Put plainly: Cell cytotoxicity. Type of test: cell-based. The conditions noted are these: read-out: IC50 (±St. Dev.) Dark, no irradiation (dark), 72 h after treatment, n = 3. The essentials:
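A549 cells were exposed to test compound and viability was read 72 h after treatment. Dark samples were protected from light. IC50 was taken from dose–response curves, n = 3.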

`N.N.[Cl][Pt][Cl]` [Cisplatin]: the IC50 (usually the concentration that gives 50% inhibition) was determined as 8.1 µM.
